# Values quoted from earlier work as cited in patent publication US6080746A, “Methods and compositions for the prophylaxis and treatment of cytomegalovirus infections” (priority 1991, dated 2000).
# At least one compound was matched to its structure with a doubt left.
# Tested on: cytomegalovirus
# Settings: cited from earlier work
structure (smiles),measurement,setting,value
"Nc1nc(O)c2ncn(COC(CO)CO)c2n1 [DHPG, dihydroxy propoxymethyl guanine, reference compound]",potency,"CMV retinitis, reported",limited potency
same,treatment of cytomegalovirus retinitis,Rosecan et al. 1986 / reported,effective against CMV retinitis
